Taken from: PubChem BioAssay AID652243 (Drosophila RNAi Screening Center, 2013)
The deposit covers about 24,000 reagents; shown is an unselected part of those that have a named target and a result. Of all reagents, 246 (1%) got an active call. 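Plates not normalised; calls are printed but the firefly/Renilla ratio behind them is not deposited; fold cut for lowering reported inconsistently.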 Raw values are not corrected between plates. A number with no mark means an inactive call. Names joined by + are all predicted targets of the reagent. The record does not give: the amount of reagent.

Assay: 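Fly genes required for human androgen receptor driven transcription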 (primary screen)
Cells: Drosophila S2R+ cells
Knock-down reagent: long dsRNA against Drosophila genes
Timing: 72 h (48 h, then 24 h hormone)
Conditions: synthetic androgen R1881 at 10 nM for 24 h
Measured: 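Per-well raw luminescence of the androgen-driven firefly reporter and of the Renilla control, two replicates each, without normalisation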
Reading the numbers: firefly reporter light: higher = more light from androgen-responsive reporter; Renilla control light: higher = more constitutive control signal (cell number, transfection)
Rule for the call: 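Across duplicate plates, a knock-down whose log firefly/Renilla ratio shifted a set fold down or up from the GFP/LacZ control mean was a hit; the downward cut appears as both 1.5 and 3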
Meaning of the calls: active = hit: reporter lowered or raised; inactive = no hit

predicted target | amplicon | firefly reporter light, replicate 1 | firefly reporter light, replicate 2 | Renilla control light, replicate 1 | Renilla control light, replicate 2
Nepl15 (Neprilysin-like 15) | DRSC15630 | 64567 | 76904 | 5.32e5 | 5.26e5
CenB1A (Centaurin beta 1A) | DRSC16923 | 7.55e5 | 8.86e5 | 1.74e6 | 1.70e6
CenB1A (Centaurin beta 1A) | DRSC28028 | 8.30e5 | 4.70e5 | 1.31e6 | 7.53e5
CG31229 | DRSC13309 | 1.03e5 | 1.57e5 | 1.90e5 | 3.45e5
CG7506 | DRSC10860 | 7.04e5 | 4.91e5 | 2.02e6 | 1.59e6
CG14147 | DRSC10149 | 1.51e5 | 1.21e5 | 1.17e6 | 8.67e5
CG10097 + CG10096 | DRSC14189 | 37023 | 82905 | 3.15e5 | 6.86e5
CG10097 + CG10096 | DRSC14190 | 1.55e5 | 1.24e5 | 2.55e6 | 2.85e6
Fancm (Fanconi anemia group M helicase) | DRSC16348 | 83875 | 69246 | 7.02e5 | 6.72e5
d-cup (davis-cup) | DRSC14846 | 1.67e5 | 1.10e5 | 1.66e6 | 1.59e6
Kdm4A (Lysine demethylase 4A) | DRSC06586 | 1.52e6 | 7.26e5 | 1.85e6 | 8.09e5
Kdm4A (Lysine demethylase 4A) | DRSC29611 | 5.95e5 | 1.07e6 | 9.23e5 | 9.23e5
mEFTs (mitochondrial translation elongation factor Ts) | DRSC02953 | 8.62e5 | 9.27e5 | 1.69e6 | 1.54e6
mEFTs (mitochondrial translation elongation factor Ts) | DRSC30019 | 5.94e5 | 3.31e5 | 1.47e6 | 1.19e6

Reformatted: results already given
predicted target	amplicon	firefly reporter light, replicate 1	firefly reporter light, replicate 2	Renilla control light, replicate 1	Renilla control light, replicate 2
Kdm4A (Lysine demethylase 4A)	DRSC06586	1.52e6	7.26e5	1.85e6	8.09e5
Kdm4A (Lysine demethylase 4A)	DRSC29611	5.95e5	1.07e6	9.23e5	9.23e5
mEFTs (mitochondrial translation elongation factor Ts)	DRSC02953	8.62e5	9.27e5	1.69e6	1.54e6
mEFTs (mitochondrial translation elongation factor Ts)	DRSC30019	5.94e5	3.31e5	1.47e6	1.19e6

The listing continues:
predicted target | amplicon | firefly reporter light, replicate 1 | firefly reporter light, replicate 2 | Renilla control light, replicate 1 | Renilla control light, replicate 2
MBD-R2 | DRSC14180 | 88577 | 1.30e5 | 1.80e6 | 2.16e6
CG13070 | DRSC09953 | 2.55e5 | 2.04e5 | 2.52e6 | 1.99e6
Lcp1Psi (Larval cuticle protein 1 pseudogene) | DRSC05105 | 63470 | 95004 | 65067 | 1.05e5
Lcp1Psi (Larval cuticle protein 1 pseudogene) | DRSC28465 | 2.61e5 | 5.19e5 | 6.20e5 | 1.34e6
fng (fringe) | DRSC11455 | 2.42e5 | 1.83e5 | 6.84e5 | 6.20e5
fng (fringe) | DRSC11887 | 33082 | 41145 | 4.82e5 | 4.68e5
fng (fringe) | DRSC21935 | 6.04e5 | 5.48e5 | 1.53e6 | 1.88e6
CG12278 | DRSC14494 | 1.56e5 | 2.52e5 | 1.39e6 | 1.95e6
Nipsnap | DRSC20169 | 69961 | 72621 | 6.70e5 | 7.94e5
CG17202 | DRSC23073 | 7.72e5 | 9.06e5 | 6.62e5 | 6.31e5
